Data on one substance can be found in paper PMC5570191.

Chains of the proteins cited; added tags and fusions are not shown.
UniProt Q6WKZ8: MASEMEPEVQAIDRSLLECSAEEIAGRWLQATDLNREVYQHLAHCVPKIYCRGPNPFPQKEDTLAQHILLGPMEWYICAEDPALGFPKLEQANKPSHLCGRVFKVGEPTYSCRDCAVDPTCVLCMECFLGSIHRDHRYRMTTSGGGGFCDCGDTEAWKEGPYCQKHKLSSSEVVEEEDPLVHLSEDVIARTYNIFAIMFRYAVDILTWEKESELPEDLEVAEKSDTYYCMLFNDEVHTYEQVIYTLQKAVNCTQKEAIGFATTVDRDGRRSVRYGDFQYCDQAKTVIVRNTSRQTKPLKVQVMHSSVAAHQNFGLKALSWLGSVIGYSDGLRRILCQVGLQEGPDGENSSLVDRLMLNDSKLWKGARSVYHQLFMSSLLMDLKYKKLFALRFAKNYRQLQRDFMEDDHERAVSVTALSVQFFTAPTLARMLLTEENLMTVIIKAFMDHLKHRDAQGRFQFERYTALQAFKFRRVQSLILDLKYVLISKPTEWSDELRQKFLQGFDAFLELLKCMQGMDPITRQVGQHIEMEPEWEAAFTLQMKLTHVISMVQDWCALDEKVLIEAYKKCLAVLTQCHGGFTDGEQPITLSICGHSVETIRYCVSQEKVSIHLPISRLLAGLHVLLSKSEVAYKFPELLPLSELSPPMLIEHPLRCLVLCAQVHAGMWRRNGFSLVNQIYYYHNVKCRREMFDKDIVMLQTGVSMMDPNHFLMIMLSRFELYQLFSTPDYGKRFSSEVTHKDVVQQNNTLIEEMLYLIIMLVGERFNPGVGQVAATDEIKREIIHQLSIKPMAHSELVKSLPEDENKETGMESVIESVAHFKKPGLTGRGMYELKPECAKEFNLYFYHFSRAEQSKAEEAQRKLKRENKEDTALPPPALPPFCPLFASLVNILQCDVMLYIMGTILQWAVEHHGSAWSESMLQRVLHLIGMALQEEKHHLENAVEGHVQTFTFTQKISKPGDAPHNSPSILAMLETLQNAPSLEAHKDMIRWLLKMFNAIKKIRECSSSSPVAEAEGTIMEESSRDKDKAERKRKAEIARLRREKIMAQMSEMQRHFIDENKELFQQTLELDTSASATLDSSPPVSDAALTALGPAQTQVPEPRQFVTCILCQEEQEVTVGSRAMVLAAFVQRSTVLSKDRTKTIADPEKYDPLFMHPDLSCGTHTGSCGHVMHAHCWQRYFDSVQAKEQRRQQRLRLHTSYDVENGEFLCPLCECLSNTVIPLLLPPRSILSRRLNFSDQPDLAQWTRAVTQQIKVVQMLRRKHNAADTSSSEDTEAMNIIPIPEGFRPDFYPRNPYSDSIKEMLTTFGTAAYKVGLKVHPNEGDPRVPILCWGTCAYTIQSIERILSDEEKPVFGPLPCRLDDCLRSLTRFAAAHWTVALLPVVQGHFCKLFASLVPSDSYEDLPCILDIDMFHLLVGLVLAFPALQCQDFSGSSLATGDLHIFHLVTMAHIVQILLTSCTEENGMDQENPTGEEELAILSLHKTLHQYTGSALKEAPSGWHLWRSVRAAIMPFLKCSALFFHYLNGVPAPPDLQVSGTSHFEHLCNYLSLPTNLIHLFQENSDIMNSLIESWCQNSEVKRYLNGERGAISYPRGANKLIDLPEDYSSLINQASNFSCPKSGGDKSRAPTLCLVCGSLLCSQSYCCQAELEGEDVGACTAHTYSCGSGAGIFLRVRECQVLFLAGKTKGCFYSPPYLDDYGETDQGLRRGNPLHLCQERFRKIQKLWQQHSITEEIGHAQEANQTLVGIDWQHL

The target in the assay is T1, mouse TEX19.1-YFP (stably expressed in mouse ESCs) (mouse) (UniProt Q99MV2).
T1 sequence: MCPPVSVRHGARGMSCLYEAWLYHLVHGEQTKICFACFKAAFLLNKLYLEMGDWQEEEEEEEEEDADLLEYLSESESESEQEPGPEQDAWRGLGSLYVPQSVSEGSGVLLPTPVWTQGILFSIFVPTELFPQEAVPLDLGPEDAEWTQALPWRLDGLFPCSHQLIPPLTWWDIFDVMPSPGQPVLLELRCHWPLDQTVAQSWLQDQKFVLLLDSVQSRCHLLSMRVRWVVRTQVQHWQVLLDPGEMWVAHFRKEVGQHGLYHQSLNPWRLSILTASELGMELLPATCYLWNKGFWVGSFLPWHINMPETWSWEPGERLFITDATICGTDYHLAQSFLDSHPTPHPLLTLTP
The assay is described as follows: affinity purification with mass spectrometry; GFP-Trap agarose IP from cytoplasmic extracts of mouse ESCs stably expressing TEX19.1-YFP or YFP, 90 min at 4°C; colloidal blue gel, in-gel trypsin digestion, MALDI TOF/TOF.

These are yes or no findings as the source states them, for the method shown. Binding seen in cells or lysates may run through a third protein. A yes stands for co-enrichment or nearness to the bait. Other partners may have been found. Sequences can lack the tags named with a protein.

With “endogenous mouse UBR2 (from UniProt Q6WKZ8 1-1755) (enzyme)”, the binding entry is listed as “binds”.
